Reference: PubChem BioAssay AID1259405 (NCATS, 2018)

- Aim: 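Silenced genes that increase secreted GFP made by CHO cells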 (primary screen)
- System: Chinese hamster CHO-K1 ovary cells with stable secreted eGFP expression
- Reagent: single siRNA against mouse genes, 0.8 pmol siRNA per well (2 µl of 400 nM stock)
- Time to read-out: 3 days
- Measured: 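Per-well intracellular GFP measured by laser scanning cytometry, plus viability from ATP luminescence, each relative to plate median of non-targeting control wells, in %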
- Direction: GFP, % of control: higher = more GFP per well, higher productivity; viability (ATP), % of control: higher = more viable cells (more ATP)
- Hit rule: 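a knock-down is called active if GFP reaches 120% or more of non-targeting control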
In all, the deposit lists about 50,000 reagents; this is a part drawn at random. About 4,000 of all reagents (8%) were called active. 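Mouse siRNA library applied to hamster cells; one well for each siRNA.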 Reagents against one gene are numbered here.

gene symbol | reagent no. | GFP, % of control | viability (ATP), % of control | call
Or6c202 | 1 | 75.7 | 88.7 | inactive
Or6c202 | 2 | 116 | 69.6 | inactive
Or6c202 | 3 | 154 | 0.918 | active
Il9r | 1 | 103 | 101 | inactive
Il9r | 2 | 50.4 | 35.3 | inactive
Il9r | 3 | 86.3 | 85.4 | inactive
Tmem40 | 1 | 59.4 | 65.3 | inactive
Tmem40 | 2 | 90.9 | 73.3 | inactive
Tmem40 | 3 | 85.8 | 93.8 | inactive
Mrgprb3 | 1 | 162 | 77.9 | active
Mrgprb3 | 2 | 79.1 | 76.5 | inactive
Mrgprb3 | 3 | 66.2 | 52.7 | inactive

Hits (from the list above):
gene symbol | reagent no. | GFP, % of control | viability (ATP), % of control | call
Or6c202 | 3 | 154 | 0.918 | active
Mrgprb3 | 1 | 162 | 77.9 | active

The results go on.
gene symbol | reagent no. | GFP, % of control | viability (ATP), % of control | call
Chmp5 | 1 | 73.1 | 58.6 | inactive
Chmp5 | 2 | 84.7 | 98.4 | inactive
Chmp5 | 3 | 68.1 | 74.7 | inactive
Proser2 | 1 | 110 | 66.5 | inactive
Proser2 | 2 | 77.6 | 83.5 | inactive
Proser2 | 3 | 95.7 | 119 | inactive
Prps1l1 | 1 | 113 | 81.1 | inactive
Shank3 | 1 | 87.8 | 52.1 | inactive
Shank3 | 2 | 68.1 | 46.1 | inactive
Shank3 | 3 | 70.1 | 98.4 | inactive
Slc40a1 | 1 | 76.5 | 80.3 | inactive
Slc40a1 | 2 | 44.4 | 51.1 | inactive
Mup20 | 1 | 103 | 67.4 | inactive
Mup20 | 2 | 77 | 57.8 | inactive
Mup20 | 3 | 29.7 | 20.3 | inactive
C9 | 1 | 87.4 | 79.4 | inactive
C9 | 2 | 65.3 | 23 | inactive
C9 | 3 | 76 | 68.1 | inactive
A930018P22Rik | 1 | 117 | 62.1 | inactive
A930018P22Rik | 2 | 59.2 | 47.9 | inactive
A930018P22Rik | 3 | 70.8 | 67.6 | inactive
Cacnb2 | 1 | 55.7 | 68.4 | inactive
Cacnb2 | 2 | 42.3 | 50 | inactive
Cacnb2 | 3 | 82.8 | 95.5 | inactive
